Drawing on paper PMC3031889, this text covers binding for two molecules.

Amino acid sequences for entries named in this document (tags omitted). A change or cut given only in a name is not applied to a line headed by its entry.
UniProt P60953: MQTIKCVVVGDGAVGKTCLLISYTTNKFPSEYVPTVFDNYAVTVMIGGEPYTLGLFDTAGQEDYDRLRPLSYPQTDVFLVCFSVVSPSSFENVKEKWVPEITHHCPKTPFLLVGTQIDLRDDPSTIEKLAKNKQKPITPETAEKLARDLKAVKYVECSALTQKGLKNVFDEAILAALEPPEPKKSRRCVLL

For test [1], the target named is T1, GEF16 (ARHGEF16), endogenous in C33A-derived cells (human (endogenous in C33A)) (UniProt Q5VV41).
T1 sequence: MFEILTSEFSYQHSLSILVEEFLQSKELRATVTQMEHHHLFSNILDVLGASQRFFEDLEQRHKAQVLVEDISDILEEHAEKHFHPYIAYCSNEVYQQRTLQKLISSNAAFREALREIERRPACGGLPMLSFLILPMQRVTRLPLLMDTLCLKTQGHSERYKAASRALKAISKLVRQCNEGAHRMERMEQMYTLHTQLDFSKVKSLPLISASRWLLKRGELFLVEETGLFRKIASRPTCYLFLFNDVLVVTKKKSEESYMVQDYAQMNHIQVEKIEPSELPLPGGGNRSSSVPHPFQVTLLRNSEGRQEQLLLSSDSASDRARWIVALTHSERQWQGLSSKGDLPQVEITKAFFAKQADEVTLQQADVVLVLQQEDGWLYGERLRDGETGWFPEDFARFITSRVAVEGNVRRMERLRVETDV
Description: co-IP; anti-GEF16 and protein G-sepharose, 48 h, 4 C, lysate of C33AT16 E6 cells (stably express HPV16 E6) treated with 10 uM MG132 for 4 h; blots for Tip-1 and Cdc42.

Test [2] deals with T1, GEF16 (ARHGEF16), endogenous in C33A-derived cells (human (endogenous in C33A)). Description: co-IP; anti-GEF16 and protein G-sepharose, 48 h, 4 C, lysate of C33AV vector control cells treated with 10 uM MG132 for 4 h; blots for Tip-1 and Cdc42.

These are yes or no findings as the source states them, for the method shown. Binding seen in cells or lysates may run through a third protein. Some binding calls cover weakened binding; strength is not graded here.

Take “Cdc42, endogenous in C33A-derived cells (from UniProt P60953 1-191)”: the binding result in test [1] is on record as “binds”.

B1: Tip-1, endogenous in C33A-derived cells (protein, UniProt O14907 1-124)
chain: MSYIPGQPVTAVVQRVEIHKLRQGENLILGFSIGGGIDQDPSQNPFSEDKTDKGIYVTRVSEGGPAEIAGLQIGDKIMQVNGWDMTMVTHDQARKRLTKRSEEVVRLLVTRQSLQKAVQQSMLS
In the case of B1, the binding entry in test [2] and in test [1] was “binds” each time.
